In US7713952B2, “2-methylene-19,26,27-trinor-(20S)-1α-hydroxyvitamin D3 and its uses” (Wisconsin Alumni Research Foundation, priority 2004, dated 2010):

Test system: 24-hydroxylase (24Ohase) gene promoter in ROS 17/2.8 (bone) cells
Assay: In vitro transcription assay (24-hydroxylase promoter luciferase reporter)
Type: cell-based
Conditions: ROS 17/2.8 cells, 24OHase-luciferase, 16 h; FIG. 3; read-out: EC50, transcriptional activity in bone cells
Experimental: In Vitro Transcription Assay
Transcription activity was measured in ROS 17/2.8 (bone) cells that were stably transfected with a 24-hydroxylase (24Ohase) gene promoter upstream of a luciferase reporter gene (Arbour et al., 1998). Cells were given a range of doses. Sixteen hours after dosing the cells were harvested and luciferase activities were measured using a luminometer.
RLU=relative luciferase units.

Work on `C=C1/C(=C\C=C2/CCC[C@]3(C)[C@@H]([C@H](C)CCCC(C)(C)O)CC[C@@H]23)C[C@@H](O)C[C@@H]1O` [1,25(OH)2D3, 1α,25-dihydroxyvitamin D3, reference compound] yielded an EC50 of 0.19 nM.
